Results taken from paper doi:10.1101/2021.01.27.428018.
No constants are given. Whether binding was seen depends on the method and setting. In cells and extracts the contact can be indirect. Here binding means that the protein was enriched with, or labelled near, the bait; the list need not be complete. For some assays here: Tags and fused reporters may be left off the sequences shown.

Sequences of proteins named here, by UniProt entry; tags and fusion partners are left off.
UniProt Q8WXI9: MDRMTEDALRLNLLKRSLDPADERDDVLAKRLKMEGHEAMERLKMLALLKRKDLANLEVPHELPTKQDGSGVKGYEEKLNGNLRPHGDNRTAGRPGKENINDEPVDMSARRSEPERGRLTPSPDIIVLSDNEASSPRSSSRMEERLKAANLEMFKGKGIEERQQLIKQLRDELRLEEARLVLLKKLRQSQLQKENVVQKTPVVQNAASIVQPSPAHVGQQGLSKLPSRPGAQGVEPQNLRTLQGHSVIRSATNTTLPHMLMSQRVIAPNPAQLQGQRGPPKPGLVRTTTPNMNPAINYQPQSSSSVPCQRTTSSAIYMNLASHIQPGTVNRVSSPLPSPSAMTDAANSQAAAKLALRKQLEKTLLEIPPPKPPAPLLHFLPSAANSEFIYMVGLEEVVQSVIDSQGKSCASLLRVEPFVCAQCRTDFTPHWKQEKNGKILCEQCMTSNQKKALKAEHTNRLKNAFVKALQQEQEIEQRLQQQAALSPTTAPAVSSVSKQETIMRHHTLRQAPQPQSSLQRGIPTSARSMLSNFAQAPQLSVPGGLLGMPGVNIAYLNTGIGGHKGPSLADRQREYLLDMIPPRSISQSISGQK

T1: FLAG-CDK2AP1 (UniProt O14519)
T1 sequence: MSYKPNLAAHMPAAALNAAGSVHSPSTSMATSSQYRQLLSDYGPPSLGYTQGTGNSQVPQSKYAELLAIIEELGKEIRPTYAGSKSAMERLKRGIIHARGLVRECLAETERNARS


Columns and labels:
[1] = target: FLAG-GATAD2B (full-length) (UniProt Q8WXI9); experiment: affinity purification with mass spectrometry
FLAG-CDK2AP1 = target: T1, FLAG-CDK2AP1; experiment: affinity purification with mass spectrometry

binding [1] | binding (FLAG-CDK2AP1) | Binder
binds | – | BEND3 (protein, UniProt Q5T5X7 1-828) MNSTEFTEDVEEVLKSITVKVETEAEDAALDCSVNSRTSEKHSVDSVLTALQDSSKRKQLVSDGLLDSVPGVKRRRLIPEALLAGMRNRENSSPCQGNGEQAGRGRSLGNVWPGEEEPCNDATTPSYKKPLYGISHKIMEKKNPPSGDLLNVYELFEKANASNSPSSLRLLNEPQKRDCGSTGAGTDNDPNIYFLIQKMFYMLNTLTSNMSQLHSKVDLLSLEVSRIKKQVSPTEMVAKFQPPPEYQLTAAELKQIVDQSLSGGDLACRLLVQLFPELFSDVDFSRGCSACGFAAKRKLESLHLQLIRNYVEVYYPSVKDTAVWQAECLPQLNDFFSRFWAQREMEDSQPSGQVASFFEAEQVDPGHFLDNKDQEEALSLDRSSTIASDHVVDTQDLTEFLDEASSPGEFAVFLLHRLFPELFDHRKLGEQYSCYGDGGKQELDPQRLQIIRNYTEIYFPDMQEEEAWLQQCAQRINDELEGLGLDAGSEGDPPRDDCYDSSSLPDDISVVKVEDSFEGERPGRRSKKIWLVPIDFDKLEIPQPDFEVPGADCLLSKEQLRSIYESSLSIGNFASRLLVHLFPELFTHENLRKQYNCSGSLGKKQLDPSRIKLIRHYVQLLYPRAKNDRVWTLEFVGKLDERCRRRDTEQRRSYQQQRKVHVPGPECRDLTSYAINPERFREEFEGPPLPPERSSKDFCKIPLDELVVPSPDFPVPSPYLLSDKEVREIVQQSLSVGNFAARLLVRLFPELFTAENLRLQYNHSGACNKKQLDPTRLRLIRHYVEAVYPVEKMEEVWHYECIPSIDERCRRPNRKKCDILKKAKKVEK
– | binds | TBL1X (protein, UniProt O60907 1-577) MTELAGASSSCCHRPAGRGAMQSVLHHFQRLRGREGGSHFINTSSPRGEAKMSITSDEVNFLVYRYLQESGFSHSAFTFGIESHISQSNINGTLVPPAALISILQKGLQYVEAEISINEDGTVFDGRPIESLSLIDAVMPDVVQTRQQAFREKLAQQQASAAAAAAAATAAATAATTTSAGVSHQNPSKNREATVNGEENRAHSVNNHAKPMEIDGEVEIPSSKATVLRGHESEVFICAWNPVSDLLASGSGDSTARIWNLNENSNGGSTQLVLRHCIREGGHDVPSNKDVTSLDWNTNGTLLATGSYDGFARIWTEDGNLASTLGQHKGPIFALKWNRKGNYILSAGVDKTTIIWDAHTGEAKQQFPFHSAPALDVDWQNNTTFASCSTDMCIHVCRLGCDRPVKTFQGHTNEVNAIKWDPSGMLLASCSDDMTLKIWSMKQEVCIHDLQAHNKEIYTIKWSPTGPATSNPNSNIMLASASFDSTVRLWDIERGVCTHTLTKHQEPVYSVAFSPDGKYLASGSFDKCVHIWNTQSGNLVHSYRGTGGIFEVCWNARGDKVGASASDGSVCVLDLRK
